Assay results taken from PubChem BioAssay AID493014 (National Center for Advancing Translational Sciences (NCATS), 2011).
Some of the results follow. These are further read-outs of the screen, such as a control signal, another cell line or another target. No call is given for them. The list favours compounds with an active or inconclusive main result. Words in brackets tell the shape of the fitted curve; partial curves, single points and poor fits give uncertain potencies.

Experiment: qHTS Assay to Find Inhibitors of Chronic Active B-Cell Receptor Signaling
Details: ABC-DLBCL IkBa-CBG/CBR reporter, luminescence ratio (green luciferase fused to IkBa over red control in TMD8 lymphoma cells), 4 h
In short: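 Concentration-response series (up to 46 uM) were applied to TMD8 dual-reporter cells for 4 h at 37C with doxycycline. Green/red ratio, after filter-overlap correction, defined %Activity; red signal alone was normalised to basal cells and zero luminescence.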

[1] = measured here: CBR red luminescence, cell number
[2] = measured here: IkBa-CBG green luminescence

| SMILES | AC50 [1] | AC50 [2] |
| --- | --- | --- |
| O=C1NC(=O)N(c2ccccc2)C(=O)/C1=C/c1coc2ccc(O)cc2c1=O | 0.708 µM [rising, partial curve, poor fit] | – |
| O=[N+]([O-])c1ccc(-c2ccccc2)c([As](=O)(O)O)c1 | 17.8 µM [falling, partial curve, poor fit] | – |
| COc1ccc(CNCCc2ccc3c(c2)OCO3)c(OC)c1OC | 31.6 µM [rising, single point] | – |
| CCOC(=O)N(CC)c1ccc(C(O)(C(=O)OCC)C(F)(F)F)cc1 (stereo unspecified) | 0.447 µM [falling, partial curve, poor fit] | – |
| C=CCn1c(O)c(/C=N/NC(=O)c2ccncc2)c(=O)[nH]c1=O | 12.6 µM [falling, single point] | – |
| COc1cccc(OP(=O)(Nc2ccccc2)Oc2cccc(OC)c2)c1 | 35.5 µM [falling, single point] | – |
| COc1cccc(C2CCN(CC(=O)Nc3cc(Cl)ccc3OC)CC2O)c1 (stereo unspecified) | 22.4 µM [falling, single point] | – |
| CCCCn1c(O)c(C(C)=NCc2cc(OC)cc(OC)c2)c(=O)[nH]c1=O | 0.00461 µM [rising, full curve, poor fit] | – |
| CCN1CCN(C(=O)COc2ccc3c(c2)C(=O)CC2(CCN(C(C)=O)CC2)O3)CC1 | 6.51 µM [falling, single point] | – |
| O=C(N/N=C/c1c(O)n(C2CC2)c(=S)[nH]c1=O)c1ccccc1Cl | 4.47 µM [falling, partial curve] | – |
| COc1cccc(C(=O)C2CCCN(Cc3ccc4nonc4c3)C2)c1 (stereo unspecified) | 1.12 µM [rising, full curve, poor fit] | – |
| C/C(=N\NC(=O)c1ccc(CN2CCc3ccccc3C2)cc1)c1ccccc1O | 15.8 µM [falling, single point] | – |
| S=C=Nc1cccc(C2(N3CCCCC3)CCCCC2)c1 | 29.1 µM [falling, single point] | – |
| Oc1c(Br)c(Br)c(Br)c(Br)c1Br | 29.1 µM [falling, single point] | 16.4 µM [rising, partial curve, poor fit] |
| BrCC(Br)(Br)Br | 20.6 µM [falling, partial curve, poor fit] | – |
| Cc1ccc(N2C(=O)NC(=O)/C(=C\C=C\c3ccco3)C2=O)cc1 | 35.5 µM [rising, single point] | 35.5 µM [falling, single point] |
| FC(F)(F)Oc1ccc(C2NCc3ccccc3-n3cccc32)cc1 (stereo unspecified) | 8.91 µM [rising, partial curve, poor fit] | – |
| CCCCn1c(=O)c(C(=O)Nc2ccccc2N)c(O)c2ccccc21 | 2.24 µM [falling, partial curve] | 25.1 µM [rising, partial curve, poor fit] |
| Cc1nccc2c1[nH]c1ccc(Br)cc12 | 23.1 µM [rising, single point] | – |
| CCCCC(=O)N/N=C/c1c(O)n(-c2cccc3ccccc23)c(=O)[nH]c1=O | 0.891 µM [rising, full curve, poor fit] | – |
| Cc1cccc(-n2c(-c3cccs3)nc3ccccc3c2=O)c1 | 5.8 µM [rising, single point] | – |

4 of the compounds above, as labelled records:
O=C(N/N=C/c1c(O)n(C2CC2)c(=S)[nH]c1=O)c1ccccc1Cl
  AC50 [1]: 4.47 µM [falling, partial curve]
COc1cccc(C(=O)C2CCCN(Cc3ccc4nonc4c3)C2)c1 (stereo unspecified)
  AC50 [1]: 1.12 µM [rising, full curve, poor fit]
C/C(=N\NC(=O)c1ccc(CN2CCc3ccccc3C2)cc1)c1ccccc1O
  AC50 [1]: 15.8 µM [falling, single point]
S=C=Nc1cccc(C2(N3CCCCC3)CCCCC2)c1
  AC50 [1]: 29.1 µM [falling, single point]

Going on with the list.

| SMILES | AC50 [1] | AC50 [2] |
| --- | --- | --- |
| CCN(CC)CCCNC1=C(Cl)C(=O)c2ccccc2C1=O | 22.4 µM [falling, single point] | – |
| CC(=O)O[C@H]1[C@H]2O[C@]23[C@@H]2CC[C@]4(O)C[C@@H](O)CC[C@]4(C)C2CC[C@]3(C)[C@H]1c1ccc(=O)oc1 (stereo partly specified) | 5.8 µM [falling, full curve, poor fit] | – |
| CCCCC/C(=N/O)c1c(C)[nH]c2ccccc12 | 35.5 µM [rising, single point] | – |
| O=C(NC1CCCCCC1)c1ccc[nH]c1=S | 10 µM [falling, partial curve, poor fit] | – |
| CC(=Nc1ccccc1N)c1c(O)n(C)c(=O)[nH]c1=O | – | 14.1 µM [rising, partial curve, poor fit] |
| CCN1CCN(S(=O)(=O)c2cnc(Cl)c(Br)c2)CC1 | 7.31 µM [falling, partial curve] | – |
| CCC(=O)c1ccc(OC(=O)N(C)c2ccccc2)cc1 | 14.1 µM [rising, single point] | – |
| CC(=O)c1cn(Cc2ccccc2C#N)c2ccccc12 | 1.78 µM [rising, partial curve, poor fit] | – |
| CN1CCN(c2ccc([N+](=O)[O-])c(Sc3ccccn3)c2)CC1 | 35.5 µM [falling, single point] | – |
| O=c1[nH]c(=O)n(Cc2ccccc2)c(O)c1C=NCCN1CCNCC1 | 25.9 µM [falling, single point] | – |
| CC(=O)OC1C=CC2[C@H]3Cc4ccc(O)c5c4[C@@]2(CCN3C)C1O5 (stereo partly specified) | 1.64 µM [rising, full curve, poor fit] | – |
| COc1ccc(-n2c(/C=C/c3ccc(O)c(O)c3)nc3ccccc3c2=O)cc1 | 7.94 µM [falling, partial curve, poor fit] | – |
| O=C(O)c1cccc(N=Nc2c(O)[nH]c(=O)[nH]c2=O)c1 | 1.58 µM [falling, full curve] | – |
| Cn1cc(C(=O)OCC(=O)Nc2ccccc2)c2ccccc21 | 9.2 µM [falling, partial curve] | – |
| O=C(NNC(=O)c1ccccn1)c1cccc([N+](=O)[O-])c1 | 11.2 µM [falling, partial curve, poor fit] | – |
| COc1ccc(-c2csc(NC(=S)NC(=O)/C=C/c3ccco3)n2)cc1Br | 1.78 µM [rising, partial curve, poor fit] | – |
| O=P1(Nc2ccc(F)cc2)COc2ccccc2OC1 | 14.1 µM [falling, partial curve, poor fit] | – |
| Cc1nn(Cc2ccccc2Cl)c(C)c1C(=O)NC1CCCc2ccccc21 (stereo unspecified) | 6.51 µM [rising, single point] | – |
| CCC1(OC(=O)CN)C(=O)OCc2c1cc1n(c2=O)Cc2cc3ccccc3nc2-1 (stereo unspecified) | 1 µM [falling, full curve] | – |
| O=C(NC(O)C(=O)c1ccccc1)c1ccc(F)cc1 (stereo unspecified) | 22.4 µM [falling, single point] | – |
| COC(=O)C1=C(c2ccc(Cl)c(C(F)(F)F)c2)C[C@@H]2CC[C@H]1N2C(=O)NCc1cc(C)oc1C(F)(F)F | 14.6 µM [falling, partial curve, poor fit] | – |

| SMILES | AC50 [1] | AC50 [2] |
| --- | --- | --- |
| COc1ccc(NC(=O)c2c(C)nn(Cc3ccccc3Cl)c2Cl)cc1Cl | 1.03 µM [rising, full curve, poor fit] | – |
| CCCOC(=O)c1ccc(-[n+]2c(-c3ccccc3)cc(-c3ccccc3)cc2-c2ccccc2)cc1 | 32.6 µM [falling, single point] | – |
| Cc1cccc(N2C(=O)/C(=C/c3ccc(N4CCN(C)CC4)o3)C(=O)NC2=S)c1C | 29.1 µM [rising, single point] | – |
| CC(=O)c1csc(Nc2ccccc2Cl)n1 | 3.98 µM [falling, partial curve, poor fit] | – |
| COc1ccc(-c2noc(-c3ccc(Br)o3)n2)cc1 | 2 µM [rising, full curve, poor fit] | – |
| CCOCCOC(=O)c1[nH]c2c(c1C)C(=O)CC(c1ccc(OC)c(OC)c1)C2 (stereo unspecified) | 22.4 µM [falling, single point] | – |
| COc1ccc(C(=O)Oc2cccc3cccnc23)cc1S(=O)(=O)N1CCOCC1 | 20 µM [falling, single point] | 11.2 µM [falling, partial curve] |
| COc1cc([N+](=O)[O-])c(OC)cc1SCc1n[nH]c(=S)n1-c1ccc(C)cc1 | 10 µM [rising, partial curve, poor fit] | – |
| CC1(C)OC(c2ccccc2)=C/C(=C/C=C2C(=O)NC(=O)NC2=O)O1 | 3.55 µM [falling, full curve] | – |
| CN1CCCC(C(O)(c2ccccc2)c2ccccc2)C1 (stereo unspecified) | 35.5 µM [falling, single point] | – |
| Cc1cc(/C=C2\C(=O)NC(=O)N(c3ccc(Cl)cc3)C2=O)c(C)n1-c1cccc(C(=O)O)c1 | 1.58 µM [rising, single point] | – |
| CN1C(=O)C(=Cc2ccccc2OCc2ccc(Cl)cc2)C(=O)N(C)C1=O | 0.082 µM [rising, full curve, poor fit] | – |
| O=[N+]([O-])c1ccc(CN2CC=C(c3ccccc3)CC2)cc1 | 10 µM [falling, partial curve] | – |
| CC1CN(C(=O)c2ccc(COc3ccc4ccccc4c3)o2)CC(C)O1 (stereo unspecified) | 15.8 µM [falling, partial curve] | – |
| COc1ccc(OC)c(-c2cc(C3CCN(c4ncccc4[N+](=O)[O-])CC3)[nH]n2)c1 | 11.2 µM [falling, partial curve, poor fit] | – |
| CN1C(=O)C(=Cc2sc(=O)n(-c3ccccc3)c2N2CCCCC2)C(=O)N(C)C1=O | 7.94 µM [falling, partial curve] | – |
| Cc1cc(/C=C2/C(=O)NC(=O)N(Cc3ccco3)C2=O)c(C)n1-c1ccccc1O | 0.708 µM [falling, full curve, poor fit] | – |
| CCOc1ccc(N(CC(=O)Nc2cccc(Cl)c2)S(=O)(=O)c2c(C)noc2C)cc1 | 35.5 µM [falling, single point] | – |
| O=C(COc1ccc(Cl)cc1)N(c1ccc(Cl)cc1)C1CN2CCC1CC2 (stereo unspecified) | 12.6 µM [falling, partial curve] | – |
| CC(C)(C)NC(=O)COC(=O)CCC(=O)c1ccc(F)cc1 | 20 µM [rising, partial curve, poor fit] | – |
